According to ChEMBL document CHEMBL1150928, “A new antitubercular mulinane diterpenoid from Azorella madreporica Clos” (J Nat Prod, 1998):
Values after ≈ are worked out from the molar mass of the structure shown.

System: Mycobacterium tuberculosis
Assay: Antitubercular activity against Mycobacterium tuberculosis H37Rv ATCC 27294
Format: functional

## CO[C@H]1/C=C/O[C@@]2(C)Oc3c(C)c(O)c4c(O)c(c(/C=N/N5CCN(C)CC5)c(O)c4c3C2=O)NC(=O)/C(C)=C\C=C\[C@H](C)[C@H](O)[C@@H](C)[C@@H](O)[C@@H](C)[C@H](OC(C)=O)[C@@H]1C [RIFAMPIN]
  MIC: 0.125 µg/mL (≈ 0.152 µM)
